Here are results for four substances from article PMC5676250 (Chemical Science, 2017).

Some peptides are written in HELM: one residue between dots, names in brackets for other building blocks, links after the first $.

The series can be described thus: general procedure: Fmoc solid-phase peptide synthesis; Fmoc Rink amide resin, 0.641 mmol/g loading; PyBOP. Particulars: whole synthesis.

“PEPTIDE1{G.K.W.M.S.[LysChol].L.K.H.I.L.K.[am]}$$$$V2.0”: the isolated yield worked out at 7.2% and the “final HPLC purity” value came out at 99.8%.
Take “PEPTIDE1{G.K.W.M.S.L.L.K.H.[LysChol].L.K.[am]}$$$$V2.0”: the isolated yield worked out at 2.2% and the “final HPLC purity” value came out at 95.2%.
For the substance “PEPTIDE1{G.K.W.M.S.L.L.[LysChol].H.I.L.K.[am]}$$$$V2.0”, the isolated yield is 3.4% and the “final HPLC purity” value was 99.8%.
As to “PEPTIDE1{G.K.W.M.S.L.L.K.H.I.L.K.[am]}$$$$V2.0”, the isolated yield is listed as 8.3% and the “final HPLC purity” value worked out at 99.0%.
